# From PubChem BioAssay AID651664 (NMMLSC, 2012)
# The campaign covered roughly 1,800 compounds. Fewer than 10 were called active.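 The calls were made as follows: active = inhibition of granule release above a set limit; inactive = the rest.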 Some of the results follow.
# Test: LAMP-1 surface externalization blockers in TALL-104 cells – cell-based, flow cytometry, validation set (AID 651664)
# Conditions: TALL-104 LAMP-1 externalization, at 15.2 µM, active compounds read high, stimulated with thapsigargin and PMA
row,Compound,inhibition
1,Cc1cc2c(c(N3CCOCC3)n1)C(=O)OC2,inactive: 1.8%
2,O=C(CSc1nc2ccccc2[nH]1)Nc1ccc2c(c1)OCCO2,inactive: 0.8%
3,Cc1ccc(CN2C(=O)CCC2C(=O)NC(C)C)cc1 (stereo not given),inactive: 2.8%
4,CCOc1cc(CNCCO)cc(Br)c1OCc1ccc(Cl)cc1Cl,inactive: -1.4%
5,O=C(NCc1ccc(F)cc1)c1ccc(CS(=O)(=O)Cc2ccccc2F)o1,inactive: -3.1%
6,CCOC(=O)CSc1nnc(-c2ccccc2)o1,inactive: -0.2%
7,COc1ccc(Cc2c(N)nc(N)nc2N)cc1,inactive: 3.1%
8,CS(=O)(=O)C1=C(O)C(=O)N(c2ccccc2)C1c1ccccc1 (stereo not given),inactive: -2.2%
9,COc1ccccc1-c1nc(C(N)=O)c2[nH]c(=O)n(-c3cccc(C)c3)c2n1,inactive: -0.5%
10,O=C(NC1CCC(C(=O)O)CC1)OCc1ccccc1 (stereo not given),inactive: 43.7%
11,CCOc1ccc(NS(=O)(=O)c2ccc(SC)cc2)cc1,inactive: -1.1%
12,Cn1ccnc1C(O)(c1nnc(-c2ccccc2)o1)C(F)(F)F (stereo not given),inactive: 0.4%
13,Cc1cc(C(=O)CSc2nc3ccccc3o2)c(C)n1CC1CCCO1 (stereo not given),inactive: -0.3%
14,O=C(c1ccc(-c2ccccc2)cc1)N1CCN(C(=O)c2ccco2)CC1,inactive: 0.7%
15,O=C(Nc1ccncc1)c1cc(F)cc(F)c1,inactive: -2.6%
16,CCCSc1nnc(NC(=O)Nc2ccc(F)cc2)s1,inactive: -0.5%
17,COC(=O)CCC(=O)N1CCOCCOCCN(C(=O)CCC(=O)OC)CCOCCOCC1,inactive: 19.7%
18,O=C(N=Nc1c(O)n(C2OC(=O)c3ccccc32)c2ccccc12)c1ccc(O)cc1 (stereo not given),inactive: -3.3%
19,CC(C)=CC(=O)Nc1nnc(C(C)C)s1,inactive: -2%
20,O=C(c1cc(=O)[nH]c2ccccc12)N1CCN(S(=O)(=O)c2ccc3ccccc3c2)CC1,inactive: -2.2%
21,CCCSc1nsc(SCCC)c1C#N,inactive: -0.6%
22,O=c1[nH]c2ccc(Cl)cc2c(-c2ccccc2)c1SC(=S)N1CCCCC1,inactive: -1.2%
23,CCNC1=C(Cl)C(=O)c2ccccc2C1=O,inactive: 0.7%
24,CC1(C(=O)O)CC(C)(C(=O)O)CC(C)(C(=O)O)C1 (stereo not given),inactive: 4.6%
25,Cc1cc(NC(=O)COc2ccc(Cl)cc2Cl)n(-c2ccccc2)n1,inactive: 0.8%

row,Compound,inhibition
1,CCC(C)(C)NC(=O)C(c1ccco1)N(C(=O)Cn1nnc2ccccc21)c1ccc2c(c1)OCO2 (stereo not given),inactive: -0.1%
2,CCOc1ccccc1N(CC(=O)NC1CCCCC1)C(=O)CCCC(=O)Nc1ccccn1,inactive: 3.5%
3,CCN(CC)S(=O)(=O)c1cc(-c2nn(C)c(=O)c3ccccc23)ccc1C,inactive: 1.2%
4,O=C(Nc1ccccc1C(=O)N1CCCCC1)c1cccc(S(=O)(=O)N2CCOCC2)c1,inactive: 0.9%
5,COc1ccc(Oc2cn[nH]c2-c2ccc(O)cc2O)cc1,inactive: -0.2%
6,Cc1cc2nc(N)sc2cc1C,inactive: 0.1%
7,COC(C(=O)Nc1cccc(F)c1)c1ccccc1 (stereo not given),inactive: -3.4%
8,Cc1cc(C(=O)CSc2nc3ccc(Cl)cc3[nH]2)c(C)n1CC1CCCO1 (stereo not given),inactive: 1.6%
9,Cc1ccc(SCC(=O)Nc2cccnc2)cc1,inactive: -2.2%
10,COc1cc(OC)cc(C(=O)Nc2nc3ccccc3[nH]2)c1,inactive: -1%
11,CCN1CCCC1CN(Cc1cc2ccc(C)c(C)c2[nH]c1=O)C(=O)Nc1ccccc1OC (stereo not given),inactive: 0.9%
12,CCN(CC)C(=O)CSc1nc2ccccc2c(=O)n1OC,inactive: 0.3%
13,O=c1[nH]c2cc3c(cc2cc1CN(Cc1cccs1)Cc1nnnn1Cc1ccco1)OCCO3,inactive: -3.2%
14,CCC(C)N=CC1=C(O)CC(c2ccccc2)CC1=O (stereo not given),inactive: -2.1%
15,Cc1ccc(C(C#N)c2ccc(C(=O)c3ccc(F)cc3)cc2)cc1 (stereo not given),inactive: -1.9%
16,CCOc1ccc(CN(CCO)CCO)cc1[N+](=O)[O-],inactive: -2.2%
17,COC(=O)c1cc2c(C)c(C)c3ccccn3c-2c1C(=O)OC,inactive: -1%
18,CC12C(=O)N(CCC(=O)O)C(=O)C1C1C=CC2C1 (stereo not given),inactive: -1%
19,Cc1ccc(-c2nc(N)c3c(-c4ccc(C)cc4)nn(C(C)(C)C)c3n2)cc1,inactive: 0%
20,CC(=O)c1c(N2CCCCC2)nc(=S)n(-c2ccccc2)c1C,inactive: -4%
21,COC(=O)c1ccccc1NC(=O)CN1CCC(n2nnc3cc(C(F)(F)F)ccc32)CC1,inactive: -1.3%
22,O=C(O)c1c[nH]c(=S)n1-c1ccc(F)cc1,inactive: 1.2%
23,CC(SCc1cn2cc(Cl)ccc2n1)C(=O)O (stereo not given),inactive: -0.7%
24,O=C(COC(=O)c1cc(-c2cccs2)nc2ccccc12)NCc1ccco1,inactive: 13.2%
25,COC(=O)c1ccc(N2C(=O)CC(N(C)CCc3ccc(OC)c(OC)c3)C2=O)cc1 (stereo not given),active: 66%

row,Compound,inhibition
1,O=S(=O)(NCc1cn2ccccc2n1)c1cc(F)ccc1F,inactive: 0.7%
2,Cn1ccnc1SCc1cn2ccccc2n1,inactive: 13%
3,CCOc1cc(/C=C2\C(=O)N(c3ccc(C(N)=O)cc3)N=C2C)ccc1OC(=O)c1cccs1,inactive: -0.1%
4,Cn1c(C(N)=O)cnc1Sc1ncc(C(F)(F)F)cc1Cl,inactive: -2.7%
5,C=CCn1c(SCc2nc3ccccc3c(=O)[nH]2)nnc1-c1cc2cc(Cl)ccc2o1,inactive: 6.9%
6,O=C(NCc1ccccc1)N1CCN(c2ccc(Cl)c(Cl)c2)CC1,inactive: -0.9%
7,CNC(=O)c1sc(-c2ccc(Cl)cc2)nc1C,inactive: -2.2%
8,COC(=O)c1ccccc1NC(=S)NC(=O)COc1ccc(C)cc1,inactive: -0.7%
9,COCCNc1nc2ccccc2nc1NS(=O)(=O)c1ccc(C)cc1C,inactive: 2.3%
10,Cc1ccc(C)c2[nH]c(=O)c(CN(Cc3ccco3)C(=O)Nc3ccccc3)cc12,inactive: -1.3%
11,O=C(NCc1ccc2c(c1)OCO2)c1cccc(F)c1,inactive: 6.2%
12,Cc1csc(NC(=O)c2ccco2)n1,inactive: -0.3%
13,CO/N=C/C(=N\Nc1ccc(OC)cc1)C(=O)c1ccc(OC)cc1,inactive: 0.7%
14,O=C(COC(=O)c1ccco1)Nc1cccc(Br)c1,inactive: -0.1%
15,O=C1c2ccccc2N2C(=O)c3ccccc3C2N1O (stereo not given),inactive: 2.3%
16,CCOCCCN(C(=O)c1ccco1)C(C(=O)NC1CCCC1)c1cccc(OC)c1OC (stereo not given),inactive: 0.9%
17,Cc1cc(C(F)(F)F)nn1CC(=O)N(C)C1CCCCC1,inactive: 2.4%
18,COc1ccc(-c2cc(C(F)(F)F)nc(SCCC(=O)NCc3ccccc3)n2)cc1,inactive: 0.1%
19,O=C1CC(N2CCN(C3CCc4ccccc4C3)CC2)C(=O)N1c1ccccc1 (stereo not given),inactive: -0.7%
20,CN(C)c1ccc(C(=O)c2ccc(N(C)C)c3ccccc23)cc1,inactive: 1.7%
21,Fc1cc2nc(-c3ccncc3)[nH]c2cc1F,inactive: -0.1%
22,Cc1ccc(C2CCN(C(=O)Nc3ccccc3)C2)cc1 (stereo not given),inactive: 0.1%
23,Cc1nc2nc(CSc3ccc(Cl)cc3)cc(=O)n2[nH]1,inactive: -1.3%
24,CNS(=O)(=O)c1cccc2cccnc12,inactive: -1.9%
25,CCn1cc(/C=N/NC(=O)c2cc3c(ccc4ccccc43)o2)c2ccccc21,inactive: -2.8%

row,Compound,inhibition
1,Cc1ccc2cc(CN(Cc3ccco3)C(=O)C3CCCCC3)c(=O)[nH]c2c1C,inactive: -4.3%
2,Cc1ccc(-c2csc(-c3c[nH]c4ccccc34)n2)cc1,inactive: -2.9%
3,O=C(NCc1ccco1)c1nn2c(C(F)(F)F)cc(-c3cccs3)nc2c1Br,inactive: 3.5%
4,CCN(CC)CCNC(=O)C12CC3CC(CC(C3)C1)C2,inactive: -1.1%
5,O=C(/C=C/c1ccccc1)N1CCN(CC(O)COc2ccccc2)CC1 (stereo not given),inactive: -0.8%
6,C=CCON1C(=O)c2ccccc2C1=O,inactive: -0.2%
7,O=C(Nc1ccc(N2CCCCC2)c(Cl)c1)c1ncn[nH]1,inactive: -2.9%
8,CCOc1cccc(NC(=O)Cc2cccs2)c1,inactive: -0.5%
9,CCC(C)(C)NC(=O)C(c1ccccc1)N(Cc1cccs1)C(=O)Cn1nnc2ccccc21 (stereo not given),inactive: 1.5%
10,Cc1oc(C(C)(C)C)cc1C(=O)Nc1ccc2c(c1)OCCO2,inactive: -1.2%
11,CCOC(=O)C(CC)(CC)C(=O)/C=C/c1ccc(Br)cc1,inactive: 2.5%
12,Cc1cccc(N/C=C/c2onc(C)c2[N+](=O)[O-])c1,inactive: 0.2%
13,Clc1ccc(Oc2cnns2)cc1Cl,inactive: 0.6%
14,COc1ccc(CNC(=O)CN2C(=O)C(C)N(c3ccc(C)cc3)C2=O)cc1 (stereo not given),inactive: 1.9%
15,CC1CN(C(=O)CCc2ccccc2)C(C)CN1C(=O)CCc1ccccc1 (stereo not given),inactive: 0.2%
16,Cc1nc2scc(-c3cccs3)c2c(=O)o1,inactive: -3.2%
17,Cc1ccc(C(=O)N/C(=C/c2ccco2)C(=O)NCCc2c[nH]c3ccccc23)cc1C,inactive: 1.6%
18,Cc1nn(-c2ccccc2)c(C)c1/C=N/O,inactive: -0.7%
19,CC(C)n1c(-c2cccs2)nc2ccccc21,inactive: 1.1%
20,O=C(CSc1nnnn1-c1cccc2c1CCCC2)NC1CCCC1,inactive: -1.9%
21,O=C(Cc1ccccc1)N1CCC(C(=O)N2CCN(c3ccc(F)cc3)CC2)CC1,inactive: 3.1%
22,c1nnnn1C12CC3CC(CC(C3)C1)C2,inactive: 3.1%
23,O=C(CSc1n[nH]c(-c2ccc(Cl)cc2Cl)n1)Nc1ccccn1,inactive: -0.7%
24,COC(=O)c1ccc(=O)n(Cc2ccc3c(c2)OCO3)c1,inactive: -2.2%
25,Cc1ccc(Cn2c(NCCCn3ccnc3)nc3c2c(=O)n(C)c(=O)n3C)cc1,inactive: -1%

# 6 successive records out of the list so far:
row,Compound,inhibition
9,COCCNc1nc2ccccc2nc1NS(=O)(=O)c1ccc(C)cc1C,inactive: 2.3%
10,Cc1ccc(C)c2[nH]c(=O)c(CN(Cc3ccco3)C(=O)Nc3ccccc3)cc12,inactive: -1.3%
11,O=C(NCc1ccc2c(c1)OCO2)c1cccc(F)c1,inactive: 6.2%
12,Cc1csc(NC(=O)c2ccco2)n1,inactive: -0.3%
13,CO/N=C/C(=N\Nc1ccc(OC)cc1)C(=O)c1ccc(OC)cc1,inactive: 0.7%
14,O=C(COC(=O)c1ccco1)Nc1cccc(Br)c1,inactive: -0.1%
